Source: patent US20090298167A1
Results are given in words; binding and its absence hold for the method and conditions named. Some entries that bind do so weakly or less than the wild type.

Amino acid sequences for entries named in this document (tags omitted). A change or cut given only in a name is not applied to a line headed by its entry.
UniProt Q9JHX3: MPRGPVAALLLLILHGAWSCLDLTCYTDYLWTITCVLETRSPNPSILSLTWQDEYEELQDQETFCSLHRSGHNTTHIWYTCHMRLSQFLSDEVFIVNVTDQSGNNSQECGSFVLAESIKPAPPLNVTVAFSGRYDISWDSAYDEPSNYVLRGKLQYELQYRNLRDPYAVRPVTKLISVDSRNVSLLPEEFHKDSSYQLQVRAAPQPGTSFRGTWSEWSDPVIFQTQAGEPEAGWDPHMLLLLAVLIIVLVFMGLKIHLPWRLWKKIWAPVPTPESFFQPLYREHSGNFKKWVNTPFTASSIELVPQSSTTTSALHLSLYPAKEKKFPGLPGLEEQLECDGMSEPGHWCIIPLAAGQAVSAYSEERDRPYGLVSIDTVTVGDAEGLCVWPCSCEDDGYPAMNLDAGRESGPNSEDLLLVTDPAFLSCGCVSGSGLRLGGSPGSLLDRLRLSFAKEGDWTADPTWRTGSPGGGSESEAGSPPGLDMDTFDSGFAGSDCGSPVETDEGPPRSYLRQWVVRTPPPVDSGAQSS
UniProt Q9HBE5: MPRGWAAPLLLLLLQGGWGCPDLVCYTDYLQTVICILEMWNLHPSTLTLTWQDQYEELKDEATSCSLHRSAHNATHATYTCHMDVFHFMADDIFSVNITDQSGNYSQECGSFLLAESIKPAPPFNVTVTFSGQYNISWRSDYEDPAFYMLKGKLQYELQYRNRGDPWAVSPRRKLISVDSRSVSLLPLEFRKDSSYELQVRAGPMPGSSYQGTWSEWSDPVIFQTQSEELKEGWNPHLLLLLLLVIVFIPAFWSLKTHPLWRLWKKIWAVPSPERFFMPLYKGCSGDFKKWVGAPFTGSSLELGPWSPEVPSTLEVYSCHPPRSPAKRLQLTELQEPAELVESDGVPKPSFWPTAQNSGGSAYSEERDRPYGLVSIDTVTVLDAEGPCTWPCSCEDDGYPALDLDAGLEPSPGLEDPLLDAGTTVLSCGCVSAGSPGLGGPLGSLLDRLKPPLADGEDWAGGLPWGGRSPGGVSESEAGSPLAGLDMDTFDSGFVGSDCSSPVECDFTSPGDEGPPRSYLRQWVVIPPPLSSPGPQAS

How the values were obtained:
[1] = biological target: murine IL-21R extracellular domain His-Flag fusion protein (murine) (UniProt Q9JHX3); experiment: BIACORE: antibody captured on anti-human IgG, 50 nM analyte injected
[2] = biological target: human IL-21R extracellular domain His-Flag fusion protein (human) (UniProt Q9HBE5); experiment: BIACORE, antibody immobilised on CM5 chip
[3] = biological target: murine IL-21R extracellular domain His-Flag fusion protein (murine) (UniProt Q9JHX3); experiment: BIACORE: AbS immobilised directly on the chip, 100 nM murine IL-21R-H/F injected
[4] = biological target: human IL-21R expressed on cells (human) (UniProt Q9HBE5); experiment: cell ELISA: CHO cells transiently expressing the receptor, antibody in conditioned medium, HRP anti-human IgG, A450
[5] = biological target: human IL-21R extracellular domain His-Flag fusion protein (human) (UniProt Q9HBE5); experiment: BIACORE: antibody captured on anti-human IgG, series of human IL-21R-His/FLAG concentrations injected
[6] = biological target: murine IL-21R extracellular domain His-Flag fusion protein (murine) (UniProt Q9JHX3); experiment: BIACORE, IgG captured, 50 nM murine IL-21R-H/F in flow
[7] = biological target: murine IL-21R extracellular domain His-Flag fusion protein (murine) (UniProt Q9JHX3); experiment: BIACORE: antibody captured on anti-human IgG, series of murine IL-21R-His/FLAG concentrations injected
[8] = biological target: human IL-21R expressed on cells (human) (UniProt Q9HBE5); experiment: cell ELISA on transfected CHO cells
[9] = biological target: cynomolgus monkey IL-21R-His/FLAG (cynomolgus monkey) (UniProt G7Q0S8); experiment: BIACORE: antibody captured on anti-human IgG, series of cynomolgus monkey IL-21R-His/FLAG concentrations injected
[10] = biological target: murine IL-21R-Fc (murine) (UniProt Q9JHX3); experiment: ELISA: mIL-21R-Fc captured on anti-mouse IgG2a; AbS added together with 10 µg/ml mIL-21; AbS detected with anti-human Ig
[11] = biological target: murine IL-21R extracellular domain His-Flag fusion protein (murine) (UniProt Q9JHX3); experiment: BIACORE, antibody immobilised on CM5 chip, 100 nM murine IL-21R-H/F
[12] = biological target: human IL-21R extracellular domain His-Flag fusion protein (human) (UniProt Q9HBE5); experiment: BIACORE, IgG captured on anti-human IgG, receptor-H/F in flow
[13] = biological target: cynomolgus monkey IL-21R-His/FLAG (cynomolgus monkey) (UniProt G7Q0S8); experiment: as above
[14] = biological target: human IL-21R extracellular domain His-Flag fusion protein (human) (UniProt Q9HBE5); experiment: BIACORE: AbT immobilised directly on the chip (as printed on the sheet), human IL-21R-H/F injected

Measured: binding

B1: AbS (antibody, human IgG1, V domains shown)
VH: QVQLQESGPGLVKPSETLSLTCAVSGYSISSGYYWGWIRQPPGKGLEWIGSISHTGNTYYNPPLKSRVTISVDTSKNQFSLKLSSVTAADTAVYYCARGGGISRPEYWGQGTLVTVSS
VL: SSELTQDPAVSVALGQTVRITCQGDSLRTYYASWYQQKPGQAPVLVIYGKHKRPSGIPDRFSGSSSGNTASLTITGAQAEDEADYYCMSRSIWGNPHVLFGGGTQLTVL
not listed: [14]
binds: all other assays above

B2: parental 18A5 antibody (antibody, V domains shown)
VH: QVQLQESGPGLVKTSETLSLTCAVSGYSISSGYYWGWIRQPPGKGLEWIGSISHTGNTYYNPPLKSRVTISVDTSKNQFSLKLSSVTAADTAVYYCARGGGISRPEYWGKGTLVTVSS
VL: SSELTQDPPVSVALGQTVTLTCQGDSLRTYYASWYQQKSGQAPILLLYGKHKRPSGIPDRFSGSTSGDTASLTITGAQAEDEADYYCNSRDSSGNPHVLFGGGTQLTVL
binds: [4] | [5] | [6] | [7] | [11]

B3: AbU (antibody, human IgG1, V domains shown)
VH: QVQLQESGPGLVKPSETLSLTCAVSGYSISSGYYWGWIRQPPGKGLEWIGSISHTGNTYYNPPLKSRVTISVDTSKNQFSLKLSSVTAADTAVYYCARGGGISRPEYWGQGTLVTVSS
VL: SSELTQDPAVSVALGQTVRITCQGDSLRTYYASWYQQKPGQAPVLVIYGKHKRPSGIPDRFSGSSSGNTASLTITGAQAEDEADYYCTTRSNKGNPHVLFGGGTQLTVL
binds: [1] | [4] | [5] | [6] | [7] | [8]

B4: AbT (antibody, human IgG1, V domains shown)
VH: QVQLQESGPGLVKPSETLSLTCAVSGYSISSGYYWGWIRQPPGKGLEWIGSISHTGNTYYNPPLKSRVTISVDTSKNQFSLKLSSVTAADTAVYYCARGGGISRPEYWGQGTLVTVSS
VL: SSELTQDPAVSVALGQTVRITCQGDSLRTYYASWYQQKPGQAPVLVIYGKHKRPSGIPDRFSGSSSGNTASLTITGAQAEDEADYYCVARSNKGNPHVLFGGGTQLTVL
not listed: [3] | [10]
binds: all other assays above
